This experiment deals with FLAG-tagged Krüppel-homologue 1 (brown planthopper, full-length CDS) (brown planthopper, Nilaparvata lugens). As to the kind of experiment: co-IP; 293T cells co-transfected with FLAG- and HA-tagged constructs; lysate precipitated with anti-FLAG antibody beads; Western blot.

Results are given in words; binding and its absence hold for the method and conditions named. In cells and extracts the contact can be indirect. Binding calls can cover weak binding; strength is not graded here.

With “HA-tagged E93 (brown planthopper, full-length CDS) (from UniProt A0A2H4G0R5)”, the binding entry is on record as “binds”.

The values above are taken from paper PMC6566557.
